Results taken from paper PMC5974397, “Oligomeric states of microbial rhodopsins determined by high-speed atomic force microscopy and circular dichroic spectroscopy” (Scientific Reports, 2018).
Results are given in words; binding and its absence hold for the method and conditions named. Some results given as binding are weak or reduced against the parent protein; the word gives no strength.

Target: Gloeobacter rhodopsin (Gloeobacter violaceus PCC 7421) (UniProt Q7NP59)
Assay: circular dichroism spectroscopy (visible, exciton coupling of retinals); protein solubilized in DDM; both purified

- binding: binds
B1: Gloeobacter rhodopsin (natural protein, Gloeobacter violaceus PCC 7421, UniProt Q7NP59 1-298, looked up)
chain: MLMTVFSSAPELALLGSTFAQVDPSNLSVSDSLTYGQFNLVYNAFSFAIAAMFASALFFFSAQALVGQRYRLALLVSAIVVSIAGYHYFRIFNSWDAAYVLENGVYSLTSEKFNDAYRYVDWLLTVPLLLVETVAVLTLPAKEARPLLIKLTVASVLMIATGYPGEISDDITTRIIWGTVSTIPFAYILYVLWVELSRSLVRQPAAVQTLVRNMRWLLLLSWGVYPIAYLLPMLGVSGTSAAVGVQVGYTIADVLAKPVFGLLVFAIALVKTKADQESSEPHAAIGAAANKSGGSLIS
modifications: retinal chromophore
notes: Gloeobacter rhodopsin (GR), proton pump, from Gloeobacter violaceus PCC 7421; also called GR; rhodopsin from Gloeobacter violaceus PCC 7421; not shown: His6, C-terminal, kept
